Primary screen of a compound library

Sequences of proteins named here, by UniProt entry; tags and fusion partners are left off. Residues count along the entry.
UniProt I6X8D2, whole entry: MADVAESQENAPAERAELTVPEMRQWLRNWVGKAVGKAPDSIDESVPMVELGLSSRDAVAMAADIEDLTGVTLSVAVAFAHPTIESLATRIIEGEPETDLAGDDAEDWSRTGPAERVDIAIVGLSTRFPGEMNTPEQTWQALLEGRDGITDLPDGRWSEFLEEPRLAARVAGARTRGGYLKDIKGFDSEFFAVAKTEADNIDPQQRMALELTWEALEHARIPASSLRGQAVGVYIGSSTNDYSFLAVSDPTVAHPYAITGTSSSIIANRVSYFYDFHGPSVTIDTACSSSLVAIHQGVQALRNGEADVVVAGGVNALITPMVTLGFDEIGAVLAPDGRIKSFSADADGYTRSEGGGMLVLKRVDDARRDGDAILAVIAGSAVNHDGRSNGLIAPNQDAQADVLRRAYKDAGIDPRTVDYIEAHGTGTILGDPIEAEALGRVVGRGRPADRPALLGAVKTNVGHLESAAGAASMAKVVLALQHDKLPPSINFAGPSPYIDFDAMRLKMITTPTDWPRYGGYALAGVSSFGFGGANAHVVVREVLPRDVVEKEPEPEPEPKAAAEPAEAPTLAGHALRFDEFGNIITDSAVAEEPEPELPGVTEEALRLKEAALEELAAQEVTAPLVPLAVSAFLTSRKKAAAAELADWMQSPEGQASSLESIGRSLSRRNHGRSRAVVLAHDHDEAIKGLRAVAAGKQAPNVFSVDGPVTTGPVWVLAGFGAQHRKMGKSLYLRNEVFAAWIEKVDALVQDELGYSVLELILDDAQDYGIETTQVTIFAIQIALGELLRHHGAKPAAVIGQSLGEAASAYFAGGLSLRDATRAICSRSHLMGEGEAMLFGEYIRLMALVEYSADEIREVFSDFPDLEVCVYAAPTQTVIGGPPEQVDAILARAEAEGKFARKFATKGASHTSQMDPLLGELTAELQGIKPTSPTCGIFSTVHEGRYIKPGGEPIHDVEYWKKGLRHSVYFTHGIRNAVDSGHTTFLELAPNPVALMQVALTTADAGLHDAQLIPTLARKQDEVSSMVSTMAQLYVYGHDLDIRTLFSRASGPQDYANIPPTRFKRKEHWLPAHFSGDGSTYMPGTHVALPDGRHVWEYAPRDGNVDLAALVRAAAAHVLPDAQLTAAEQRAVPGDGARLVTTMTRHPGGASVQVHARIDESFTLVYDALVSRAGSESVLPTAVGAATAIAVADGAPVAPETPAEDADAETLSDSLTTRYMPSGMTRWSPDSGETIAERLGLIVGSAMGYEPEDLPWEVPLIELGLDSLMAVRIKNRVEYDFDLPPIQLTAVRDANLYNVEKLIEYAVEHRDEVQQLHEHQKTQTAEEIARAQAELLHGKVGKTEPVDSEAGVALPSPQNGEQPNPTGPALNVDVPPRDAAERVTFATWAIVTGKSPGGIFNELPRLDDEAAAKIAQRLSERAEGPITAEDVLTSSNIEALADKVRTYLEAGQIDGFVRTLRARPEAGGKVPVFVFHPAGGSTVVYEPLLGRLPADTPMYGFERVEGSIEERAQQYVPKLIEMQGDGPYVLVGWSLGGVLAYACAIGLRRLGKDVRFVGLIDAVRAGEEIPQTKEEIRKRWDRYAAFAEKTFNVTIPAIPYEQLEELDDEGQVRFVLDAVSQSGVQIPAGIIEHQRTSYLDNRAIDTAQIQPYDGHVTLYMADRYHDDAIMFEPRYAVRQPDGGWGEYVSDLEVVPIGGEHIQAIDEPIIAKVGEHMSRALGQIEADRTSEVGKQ
UniProt A4I591, 1-473: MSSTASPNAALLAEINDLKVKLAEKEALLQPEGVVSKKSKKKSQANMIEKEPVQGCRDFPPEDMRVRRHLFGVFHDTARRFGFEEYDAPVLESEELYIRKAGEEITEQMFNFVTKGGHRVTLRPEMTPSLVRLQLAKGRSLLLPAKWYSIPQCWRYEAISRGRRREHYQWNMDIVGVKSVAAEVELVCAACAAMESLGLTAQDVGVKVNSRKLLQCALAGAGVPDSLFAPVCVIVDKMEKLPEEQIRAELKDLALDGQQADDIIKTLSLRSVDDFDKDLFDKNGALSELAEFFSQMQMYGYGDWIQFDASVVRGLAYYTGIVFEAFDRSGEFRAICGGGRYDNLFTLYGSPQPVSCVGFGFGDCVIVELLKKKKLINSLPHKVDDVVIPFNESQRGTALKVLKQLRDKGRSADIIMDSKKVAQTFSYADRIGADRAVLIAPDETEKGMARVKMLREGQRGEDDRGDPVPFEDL
UniProt P9WPC5, whole entry: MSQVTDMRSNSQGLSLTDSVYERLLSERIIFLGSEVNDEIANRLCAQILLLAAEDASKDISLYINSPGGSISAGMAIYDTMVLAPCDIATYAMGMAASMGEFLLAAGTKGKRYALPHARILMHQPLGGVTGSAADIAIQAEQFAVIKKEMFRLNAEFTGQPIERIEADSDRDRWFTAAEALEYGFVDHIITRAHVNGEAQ
UniProt P9WPC3, whole entry partner: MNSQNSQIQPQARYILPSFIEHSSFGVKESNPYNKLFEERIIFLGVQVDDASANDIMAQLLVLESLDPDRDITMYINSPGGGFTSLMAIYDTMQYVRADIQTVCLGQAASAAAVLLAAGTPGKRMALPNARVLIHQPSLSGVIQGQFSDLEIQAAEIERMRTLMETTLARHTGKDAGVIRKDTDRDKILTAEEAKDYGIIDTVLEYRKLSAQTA
UniProt P9WNZ1, whole entry: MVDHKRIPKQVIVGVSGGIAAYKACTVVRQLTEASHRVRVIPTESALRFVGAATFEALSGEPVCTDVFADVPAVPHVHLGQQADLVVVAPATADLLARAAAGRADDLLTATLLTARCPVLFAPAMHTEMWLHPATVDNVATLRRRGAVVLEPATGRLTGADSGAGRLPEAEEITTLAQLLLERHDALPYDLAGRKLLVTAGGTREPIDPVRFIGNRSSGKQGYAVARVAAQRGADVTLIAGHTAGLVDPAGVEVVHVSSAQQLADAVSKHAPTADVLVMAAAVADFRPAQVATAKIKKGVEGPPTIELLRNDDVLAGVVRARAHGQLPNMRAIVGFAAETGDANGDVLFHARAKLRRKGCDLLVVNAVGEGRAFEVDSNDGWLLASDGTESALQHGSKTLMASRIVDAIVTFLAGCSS

The filed quantity is “Percent Effect” (%). How 0% and 100% were set is not recorded. Most values in the screen are low, and negative values occur. The compounds are a random part of those screened. Two or more numbers in one place are separate tests of the same structure; such repeats can differ widely. A dash means the value is not listed here; it may have been measured.

Pks13 thioesterase: 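Enzyme assay of the thioesterase domain of polyketide synthase 13; the read-out is not stated. Target: Polyketide synthase Pks13, Mycobacterium tuberculosis (UniProt I6X8D2). Tested at 30 µM. The record gives no direction; the compounds picked for IC50 retests had high values, so higher reads as stronger inhibition. Of about 67,000 compounds tested this way, about 300 (0.46%) reached 50% or more in at least one test.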
LiHisRS: 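Histidine-tRNA ligase, Leishmania infantum (UniProt A4I591). Enzyme assay of histidyl-tRNA synthetase; the read-out is not stated. Tested at 30 µM. Direction is inferred from retests: higher values go with stronger inhibition. The assay is labelled LdHisRS but filed under L. infantum. About 69,000 compounds were tested under these conditions; 0.6% (about 410) showed 50% or more at least once.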
Leishmania in macrophages: 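Cell assay of Leishmania donovani living inside macrophages; the read-out is not stated. Concentration: 30 µM. Higher reads as stronger inhibition (inferred: compounds with an IC50 in retests scored well above the rest). Of about 69,000 compounds tested this way, about 1,000 (1.5%) reached 50% or more in at least one test.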
ClpP1P2: 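Protease assay of ClpP1P2, read by the AMC dye that it sets free. Target: ClpP1P2, Mycobacterium tuberculosis (UniProt P9WPC5 and UniProt P9WPC3). Compounds at 50 µM. Higher reads as stronger inhibition, judged from the few compounds that gave an IC50. Most other retested compounds had strongly negative values. Size under these conditions: about 69,000 compounds, about 10 of them at 50% or above in at least one test.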
Toxoplasma: 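Assay of Toxoplasma gondii numbers, read through their beta-galactosidase reporter with a colour substrate. Tested at 10 µM. The record gives no direction; the compounds picked for IC50 retests had high values, so higher reads as fewer parasites. Size under these conditions: about 67,000 compounds, about 260 of them at 50% or above in at least one test.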
CoaBC: 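Enzyme assay of CoaBC with a phosphate dye (Biomol Green) read at 650 nm. Target: Coenzyme A biosynthesis protein CoaBC, Mycobacterium tuberculosis (UniProt P9WNZ1). Tested at 30 µM. Higher reads as stronger inhibition, judged from the few compounds that gave an IC50. Most strong results did not repeat in a second test. About 67,000 compounds were tested under these conditions; 0.06% (about 40) showed 50% or more at least once.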

Compound	Pks13 thioesterase	LiHisRS	Leishmania in macrophages	ClpP1P2	Toxoplasma	CoaBC
CCc1ncc(C(=O)NCCNc2ccncc2)s1	-21.59%	18.37%	-14.13%	14.4%	4.831%	2.81%
CN(CCO)Cc1cc(Cl)ccc1OCC(O)CN1CCCCCC1 (configuration not stated)	-15.59%	15.66%	43.86%	-18.27%	3.294%	7.403%
Cc1csc(CCCNC(C)CC(=O)Nc2cccc(C)c2C)n1 (configuration not stated)	-17.78%	9.91%	-7.49%	-0.3419%	0.7955%	3.891%
O=C(NCCNC(=O)c1scnc1Cl)c1ccccc1	-	20.27%	20.09%	-2.725%	3.711%	3.259%
Cc1nc(C)n(CC2CN(c3ncccc3C#N)CCO2)n1 (configuration not stated)	26.03%	9.821%	22.51%	-38.74%	-6.178%	4.725%
COc1ccc(NC(=O)Cc2c(C)nn(C)c2C)cc1F	-6.367%	10.36%	21.09%	6.062%	0.918%	8.025%
CCCOCC(=O)N1CCCN(Cc2csc(CC)n2)CC1	-22.64%	15.09%	6.1%	2.426%	-2.245%	9.895%
FC(F)(F)c1cccc(N2CCC(NCc3cccnc3)CC2)c1	-7.981%	10.64%	-24.3%	-4.357%	-12.15%	3.474%
O=C(c1c2c(N3CCOCC3)ncnc2n2ccccc12)N1CCCC1	-9.644%	15.79%	16.59%	-154.4%	-1.26%	-8.35%
Cc1ccc(Cn2c(=O)[nH]c3cccnc3c2=O)cc1	-6.322%	3.297%	-2.749%	6.533%	15.3%	-4.717%
CCN1CCN2CCCN(S(=O)(=O)c3ccc(S(C)(=O)=O)cc3)C2C1=O (configuration not stated)	-11.18%	16.67%	-12.92%	1.978%	6.383%	6.388%
CC(=O)N1CCN(C(=O)c2snnc2C)[C@H]2CS(=O)(=O)C[C@H]21	-4.969%	5%	-	-7.6%	-	6.21%
CC(c1ccc(F)cc1F)N1CCN(CCC(=O)O)CC1.Cl (configuration not stated)	-	-	14.31%	-	13.68%	-
COc1ncccc1CN1Cc2nccn2CC(CN2CCCC2)C1 (configuration not stated)	-3.45%	9.91%	26.24%	1.474%	15.42%	0.7426%
COc1cccc(CNCc2ccc(F)c(Cl)c2)c1O	21.1%	21.35%	3.534%	-2.391%	18.42%	0%
CCc1noc(CN(CC)Cc2cc3cc(C)ccc3[nH]c2=O)n1	-11.23%	29.51%	7.615%	-9.192%	14.75%	-3.68%
CN(Cc1nnc2n1CCC2)C(=O)c1ccc2c(c1)OCO2	-2.884%	7.895%	37.36%	-26.1%	7.509%	3.143%
O=C(CN1CC(c2nc(C3CC3)no2)C1)NCC1CCCO1.O=C(O)C(=O)O (configuration not stated)	-	-	-6.492% & 1.87%	-	-11.97%	-
Cc1ccc(C(=O)NCCCN(C)S(C)(=O)=O)c(=O)[nH]1	1.075%	15.15%	-5.146%	5.858%	-4.908%	4.234%
COc1ccc(C(=O)N2CCC(Oc3cccc(C)c3)(C(=O)O)CC2)o1	4.324%	-4.167%	-2.396%	-10.18%	-1.229%	-1.442%
c1ccc(N2CCOC3(CCCN(c4nncs4)C3)C2)nc1 (configuration not stated)	-16.66%	16.5%	-	-11.23%	-	2.662%
CC1c2ncc(CN3CCN(C)CC3)n2CCN1Cc1ccccn1.O=C(O)C(F)(F)F.O=C(O)C(F)(F)F.O=C(O)C(F)(F)F.O=C(O)C(F)(F)F (configuration not stated)	-	-	7.274%	-	9.209%	-
CN(Cc1cccc(OC(F)(F)F)c1)Cc1cnn(C)c1	-13.33%	0%	10.05%	1.639%	1.147%	-0.1274%
O=C(O)C(F)(F)F.O=C(O)C(F)(F)F.[H][C@@]12CN(C(=O)c3ccco3)C[C@]1([H])OCCN2CCN1CCCC1	-	-	1.09%	-	-4.25%	-
CC[C@@H]1N(Cc2ccsc2)CCC[C@]12CCC(=O)N2CCOC.O=C(O)C(F)(F)F	-	-	35.19%	-	6.653%	-
Cc1ccc(CN2CC3(CCN(C(=O)C4CC4)CC3)CC2C(=O)O)o1 (configuration not stated)	7.336%	6.452%	26.07%	0.5523%	3.055%	2.675%
O=C(O)C(F)(F)F.O=C1CCCN1Cc1ncn2c1CN(Cc1cccs1)CCC2	-	-	37.74%	-	-7.61%	-
CC(C)OCCCN(Cc1ccncc1)Cc1cc(F)ccc1F	-3.609%	-1.053%	-	8.912%	-	-3.163%
CC1CCN(c2ncc3c(n2)CN(c2ccc(F)cc2)C3=O)CC1	-12.47%	12.39%	-22.84%	-0.7645%	19.77%	7.463%
CCN1CCCc2cc(CN3CCc4c(nc(C)[nH]c4=O)C3)ccc21	-12.05%	9.396%	-3.963%	26.87%	-2.688%	0.9132%
O=C(CN1CC(n2cccn2)C1)NCCC1=CCCCC1	-6.685%	10.71%	-3.221%	-17.58%	-5.443%	13.92% & 20.39%
COc1c(CNC2CCOc3c(F)cccc32)c(C)nn1C (configuration not stated)	-26.73%	12.12%	11.84%	5.607%	-5.247%	10.06%
Cc1cc(C(=O)N[C@H]2CC[C@@]3(CCC(=O)N3CC3CC3)CC2)no1	-27.38%	7.767%	7.283%	-7.619%	-40.21%	0.7634%
COc1ccc(-c2nc(CSC3CCCCNC3=O)co2)cc1 (configuration not stated)	-32.55%	15.49%	35.21%	3.409%	10.14%	-
Cc1cccc(CS(=O)(=O)CC(O)Cn2cccn2)c1 (configuration not stated)	7.361%	24.29%	-18.29%	0.09948%	-13.48%	3.484%
CC1c2ncc(COc3cccnc3)n2CCN1Cc1cnn(C)c1.O=C(O)C(F)(F)F.O=C(O)C(F)(F)F (configuration not stated)	-	-	5.562%	-	-3.816%	-
CCc1nc(Cn2c(=O)n(CC)c3ccccc32)no1	-7.248%	8.511%	-5.45%	-13.19%	-1.335%	-0.9926%
Cc1cc(F)ccc1C(=O)N1C[C@@H]2COC[C@]2(CN(C)C)C1	-28.53%	1.709%	-	7.586%	-	-
O=C(CS(=O)(=O)C1CCCC1)NC1CCc2nccn2C1 (configuration not stated)	10.5%	-0.8929%	-4.169%	-0.516%	-1.512%	1.24%
CC(C)CN1C[C@H]2CCN(C(=O)c3ccccn3)CC[C@H]2S1(=O)=O	5.448%	13.46%	-	-2.248%	-	2.188%
CCCC(NC(=O)c1ccc(C)cc1C)c1nnn[nH]1 (configuration not stated)	-16.08%	18.75%	15.02%	0.3238%	-0.4651%	8.678%
CC(C)(C)c1ccc(S(=O)(=O)CCN2CCNC(=O)CC2)cc1	-6.66%	8.163%	31.92%	9.496%	2.213%	4.363%
COCCCNCc1cc(O)c2cc(C)cc(C)c2n1	-19.3%	22.58%	8.445%	-3.025%	-2.145%	2.096%
Cc1ccc(C)n1-c1c(C(=O)NCC(c2ccsc2)N(C)C)cnn1C (configuration not stated)	-3.097%	18.42%	8.196% & 40.65%	1.27%	-1.252%	2.278%
CC1=Nc2c(c(=O)[nH]n2C(C)C)C(c2ccc3c(c2)OCCO3)S1 (configuration not stated)	-12.94%	47.37%	-18.82%	8.888%	-12.19%	0.5051%
O=C(c1ccc(F)c(F)c1)N1CCC[C@]2(C[C@@H](OCC3CC3)CO2)C1	-16.71%	18%	53.63%	7.68%	-9.636%	-2.25%
CN1CCN(Cc2nnc(C3CCN(CC4CC4)CC3)n2C)CC1	-13.52%	21.15%	36.3%	1.101%	-3.941%	-10.02%
O=C(Nc1nnn[nH]1)c1cc(-c2ccc(Br)s2)n[nH]1	-15.47%	-268.5%	-0.7916%	0.05131%	12.33%	-17.19%
NC(=O)C1CN(c2ncnc3c2Cc2ccccc2OC3)CCO1 (configuration not stated)	2.783%	10.83%	27.57%	-29.07%	-65.91%	1.366%

From ChEMBL document CHEMBL3988442, “University of Dundee, Small-Polar-MMV Screening Library” (2021).